# Measurements taken from PubChem BioAssay (NCATS).
# The other results are listed elsewhere or left out. Further columns of the screen follow, without active or inactive calls. Most of these compounds were active or inconclusive in the main read-out, so they are no random draw. Words in brackets tell the shape of the fitted curve; partial curves, single points and poor fits give uncertain potencies.
# Assay: qHTS for identification of novel therapeutic agents for treatment of microphthalmiaassociated transcription factor (MiT) renal cell carcinoma (RCC) (AID 1963991)
# Conditions: CellTiter-Glo, 48 h; for z-score: stronger effect = lower value
# Procedure, shortened: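 Three TFE3-fusion RCC lines (UOK109, UOK124, UOK145), 500 cells/well in complete medium, were treated with MIPE 4.0 compounds for 48 hours at 37 C. Viability was by CellTiter-Glo luminescence, normalized to DMSO (100%) and empty wells (0%); curves fitted over 11 concentrations.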
# [1] = TFE3-RCC UOK109 viability, measured here: UOK109 Z-AUC
# [2] = TFE3-RCC viability, measured here: UOK124 Z-AUC
# [3] = TFE3-RCC viability, measured here: UOK145 Z-AUC
# [4] = TFE3-RCC viability, measured here: UOK145 cell viability
# [5] = TFE3-RCC viability, measured here: UOK124 cell viability
structure (smiles),measurement,setting,value
N=C(N=C(N)N)N1CCOCC1,z-score,[1],1.01
same,z-score,[2],0.86
same,z-score,[3],1.43
same,AC50,[4],"33.2 µM [falling, single point]"
COc1ccc(-c2oc3c(CC=C(C)C)c(O)cc(O)c3c(=O)c2O)cc1,z-score,[1],-0.506
same,z-score,[2],0.177
same,AC50,[5],"2.35 µM [falling, partial curve, poor fit]"
same,z-score,[3],0.517
O=C(NC(Cc1cc(=O)[nH]c2ccccc12)C(=O)O)c1ccc(Cl)cc1 (centres undefined),z-score,[1],-0.306
same,z-score,[2],0.53
same,z-score,[3],-1.17
same,AC50,[4],"33.2 µM [falling, single point]"
COc1ccc2c(OCc3nnc4ccc(-c5ccccc5)nn34)ccnc2c1,z-score,[1],0.891
same,z-score,[2],1.25
same,AC50,[5],"0.00187 µM [rising, full curve, poor fit]"
same,z-score,[3],0.837
CC(C)(F)C[C@H](N[C@@H](c1ccc(-c2ccc(S(C)(=O)=O)cc2)cc1)C(F)(F)F)C(=O)NC1(C#N)CC1,z-score,[1],-1.3
same,z-score,[2],0.497
same,z-score,[3],-0.817
same,AC50,[4],"0.132 µM [rising, full curve, poor fit]"
CNC[C@H](O)c1cccc(O)c1,z-score,[1],0.447
same,z-score,[2],0.656
same,z-score,[3],2.59
same,AC50,[4],"0.00187 µM [rising, full curve, poor fit]"
CC(O)=C(C#N)C(=O)Nc1ccc(C(F)(F)F)cc1,z-score,[1],0.786
same,z-score,[2],-2.65
same,z-score,[3],0.412
same,AC50,[4],"16.6 µM [falling, partial curve]"
Cc1nc(C(=O)NCC(=O)O)c(O)c2ccc(Oc3ccccc3)cc12,z-score,[1],0.528
same,z-score,[2],0.524
same,z-score,[3],0.485
same,AC50,[4],"1.05 µM [falling, partial curve, poor fit]"
CN1CCN(c2c(F)cc3c(=O)c(C(=O)O)cn4c3c2OCN4C)CC1,z-score,[1],-0.574
same,z-score,[2],0.652
same,AC50,[5],"0.00105 µM [falling, full curve, poor fit]"
same,z-score,[3],-1.2
CC1(C)O[C@@H]2C[C@@H]3[C@H]4C[C@@H](F)C5=CC(=O)C=C[C@]5(C)[C@@]4(F)[C@@H](O)C[C@]3(C)[C@]2(C(=O)CO)O1,z-score,[1],0.513
same,z-score,[2],0.596
same,z-score,[3],2.2
same,AC50,[4],"1.05 µM [falling, partial curve, poor fit]"
Nc1nc(-c2nn(Cc3ccccc3F)c3ncccc23)nc(N)c1N1CCOCC1,z-score,[1],0.317
same,z-score,[2],0.451
same,AC50,[5],"37.2 µM [falling, partial curve, poor fit]"
same,z-score,[3],0.233
CCC[C@@H]1C[C@@H](C(=O)N[C@@H]([C@H]2O[C@H](SC)[C@H](O)[C@@H](O)[C@H]2O)[C@@H](C)O)N(C)C1,z-score,[1],1.75
same,z-score,[2],0.259
same,AC50,[5],"0.0469 µM [rising, full curve, poor fit]"
same,z-score,[3],0.938
C[C@H](CCC(=O)O)[C@H]1CC[C@H]2[C@H]3[C@@H](CC[C@]12C)[C@@]1(C)CC[C@@H](O)C[C@H]1C[C@@H]3O,z-score,[1],0.00683
same,z-score,[2],0.504
same,z-score,[3],0.48
same,AC50,[4],"13.2 µM [falling, partial curve, poor fit]"
CC1(C)SCCN(S(=O)(=O)c2ccc(OCC#CCO)cc2)[C@@H]1C(=O)NO,z-score,[1],-0.878
same,z-score,[2],0.796
same,AC50,[5],"0.00526 µM [falling, full curve, poor fit]"
same,z-score,[3],0.918
Cc1ccc(Nc2cc(-c3cccc(N4C(=O)c5ccccc5C4=O)c3)ncn2)cc1NS(C)(=O)=O,z-score,[1],-0.325
same,z-score,[2],0.435
same,z-score,[3],-0.023
same,AC50,[4],"33.2 µM [falling, partial curve, poor fit]"
CCCCn1c(=O)n(Cc2ccccc2F)c(=O)c2[nH]c(Cc3ccc(NC(C)=O)cc3)nc21,z-score,[1],-0.0358
same,z-score,[2],-0.125
same,AC50,[5],"2.96 µM [falling, partial curve, poor fit]"
same,z-score,[3],-0.264
CC(C)(C)NC(=O)[C@H]1CC[C@H]2[C@@H]3CC[C@H]4NC(=O)C=C[C@]4(C)[C@H]3CC[C@]12C,z-score,[1],-0.507
same,z-score,[2],-0.00295
same,z-score,[3],-0.715
same,AC50,[4],"2.96 µM [falling, full curve]"
c1cc(N[C@@H]2CCNC2)nc(-c2cnc3ccc(-c4cn[nH]c4)cn23)c1,z-score,[1],-0.901
same,z-score,[2],0.423
same,z-score,[3],-0.336
same,AC50,[4],"37.2 µM [falling, single point]"
O=C(NOC[C@H](O)CO)c1ccc(F)c(F)c1Nc1ccc(I)cc1F,z-score,[1],-1.33
same,z-score,[2],-1.21
same,z-score,[3],0.462
same,AC50,[4],"23.5 µM [falling, partial curve]"
CCn1cc(C(=O)O)c(=O)c2ccc(C)nc21,z-score,[1],0.321
same,z-score,[2],0.32
same,z-score,[3],0.872
same,AC50,[4],"0.00833 µM [rising, full curve]"
CCCCN(CCCC)CC(O)c1cc(Cl)cc2c1-c1ccc(Cl)cc1C2=Cc1ccc(Cl)cc1 (centres undefined),z-score,[1],0.544
same,z-score,[2],0.39
same,AC50,[5],"37.2 µM [falling, single point]"
same,z-score,[3],0.63
C[C@@H](NC(=O)c1ncnc(N)c1Cl)c1ncc(C(=O)Nc2cc(C(F)(F)F)c(Cl)cn2)s1,z-score,[1],0.677
same,z-score,[2],0.695
same,z-score,[3],0.752
same,AC50,[4],"18.7 µM [falling, partial curve, poor fit]"
CN1[C@H]2CC[C@H]1CC(OC(=O)c1c[nH]c3ccccc13)C2 (some centres undefined),z-score,[1],0.65
same,z-score,[2],0.835
same,z-score,[3],0.431
same,AC50,[4],"14.8 µM [falling, partial curve, poor fit]"
CN(C)N=Nc1nc[nH]c1C(N)=O,z-score,[1],0.825
same,z-score,[2],2.2
same,AC50,[5],"0.0332 µM [rising, full curve]"
same,z-score,[3],1.14
CCC[C@@H](NC(=O)[C@@H]1[C@H]2CCC[C@@H]2CN1C(=O)[C@@H](NC(=O)[C@@H](NC(=O)c1cnccn1)C1CCCCC1)C(C)(C)C)C(=O)C(=O)NC1CC1,z-score,[1],0.631
same,z-score,[2],0.657
same,AC50,[5],"23.5 µM [falling, single point]"
same,z-score,[3],-1.64
CC(C)(C)C(=O)Oc1ccc2c(c1)nc(NC(=O)c1cccc([N+](=O)[O-])c1)n2CCCO,z-score,[1],1.03
same,z-score,[2],-0.929
same,AC50,[5],"16.6 µM [falling, partial curve, poor fit]"
same,z-score,[3],0.206
N#CC(=C(N)Sc1ccc(N)cc1)c1ccccc1C(F)(F)F,z-score,[1],-0.733
same,z-score,[2],-0.219
same,AC50,[5],"6.62 µM [falling, partial curve, poor fit]"
same,z-score,[3],-0.108
CN1CC(=O)N2C(Cc3c([nH]c4ccccc34)[C@H]2c2ccc3c(c2)OCO3)C1=O (some centres undefined),z-score,[1],0.939
same,z-score,[2],0.151
same,AC50,[5],"29.6 µM [falling, single point]"
same,z-score,[3],0.393
COc1ccc(C2Sc3ccccc3N(CCN(C)C)C(=O)C2OC(C)=O)cc1 (centres undefined),z-score,[1],0.82
same,z-score,[2],0.112
same,z-score,[3],0.481
same,AC50,[4],"20.9 µM [falling, single point]"
O=C1NC(=O)C(=Cc2ccc3c(c2)OC(F)(F)O3)S1,z-score,[1],0.994
same,z-score,[2],0.29
same,z-score,[3],0.496
same,AC50,[4],"18.7 µM [falling, partial curve]"
OC[C@H]1O[C@@H](Oc2ccc(O)cc2)[C@H](O)[C@@H](O)[C@H]1O,z-score,[1],0.734
same,z-score,[2],0.108
same,z-score,[3],0.734
same,AC50,[4],"33.2 µM [falling, single point]"
COc1cc(C(C)C)c(Oc2cnc(NC(CO)CO)nc2N)cc1I,z-score,[1],-0.461
same,z-score,[2],-1.58
same,z-score,[3],-0.242
same,AC50,[4],"2.35 µM [falling, full curve, poor fit]"
O=S(=O)(O)CCSSCCS(=O)(=O)O,z-score,[1],-0.897
same,z-score,[2],0.68
same,z-score,[3],-0.728
same,AC50,[4],"0.0166 µM [rising, full curve]"
O=C(Nc1cc(Cl)cc2c1[nH]c1cnccc12)c1cccnc1,z-score,[1],-1.08
same,z-score,[2],0.527
same,z-score,[3],0.681
same,AC50,[4],"29.6 µM [falling, single point]"
Cc1ccc2c(c1)C(=O)[C@]1(O)CCN(c3ccccc3)C1=N2,z-score,[1],1.09
same,z-score,[2],1.14
same,AC50,[5],"23.5 µM [falling, single point]"
same,z-score,[3],-0.222
O=C(NCc1ccccc1)[C@H](Cc1ccccc1)NC(=O)[C@@H]1O[C@@H]1C(=O)NCCc1ccc(O)cc1,z-score,[1],-5.53
same,z-score,[2],0.676
same,AC50,[5],"18.7 µM [falling, partial curve]"
same,z-score,[3],-3.85
CC(C)C[C@H](CC(=O)O)C(=O)N[C@@H](Cc1c[nH]c2ccccc12)C(=O)N[C@@H](C)c1ccccc1,z-score,[1],-0.53
same,z-score,[2],0.629
same,z-score,[3],-0.128
same,AC50,[4],"18.7 µM [falling, single point]"
NC(N)=Nc1nc(CSCCC(N)=NS(N)(=O)=O)cs1,z-score,[1],0.0967
same,z-score,[2],0.398
same,z-score,[3],0.481
same,AC50,[4],"23.5 µM [falling, partial curve, poor fit]"
Nc1ncn([C@H]2C[C@H](O)[C@@H](CO)O2)c(=O)n1,z-score,[1],-0.0254
same,z-score,[2],1.35
same,z-score,[3],0.192
same,AC50,[4],"5.9 µM [falling, partial curve]"
CCOC(=O)c1c(C)n(C)c2ccc(O)cc12,z-score,[1],1.94
same,z-score,[2],0.577
same,z-score,[3],0.423
same,AC50,[4],"20.9 µM [falling, partial curve, poor fit]"
CCOC(=O)C=C[C@H](C[C@@H]1CCNC1=O)NC(=O)[C@@H](CC(=O)[C@@H](NC(=O)c1cc(C)on1)C(C)C)Cc1ccc(F)cc1,z-score,[1],0.581
same,z-score,[2],0.674
same,z-score,[3],-0.534
same,AC50,[4],"0.935 µM [rising, full curve, poor fit]"
Oc1cc2c(cc1O)C1c3ccc(O)c(O)c3OCC1(O)C2 (centres undefined),z-score,[1],0.947
same,z-score,[2],0.45
same,AC50,[5],"18.7 µM [falling, partial curve, poor fit]"
same,z-score,[3],1.28
CC1(C)Cc2c(-c3ccccc3)c(-c3ccc(Cl)cc3)c(CC(=O)O)n2C1,z-score,[1],0.481
same,z-score,[2],0.635
same,AC50,[5],"20.9 µM [falling, single point]"
same,z-score,[3],0.173
COc1cc(Nc2nc3ccccc3nc2NS(=O)(=O)c2ccc(NC(=O)c3ccc(C)c(OC)c3)cc2)cc(OC)c1,z-score,[1],0.572
same,z-score,[2],1.53
same,z-score,[3],0.0848
same,AC50,[4],"20.9 µM [falling, partial curve]"
Cc1nnc(C(C)C)n1C1C[C@H]2CC[C@@H](C1)N2CC[C@H](NC(=O)C1CCC(F)(F)CC1)c1ccccc1 (some centres undefined),z-score,[1],0.419
same,z-score,[2],0.281
same,z-score,[3],0.366
same,AC50,[4],"29.6 µM [falling, single point]"

# Not a retest: entries from further up.
structure (smiles),measurement,setting,value
CC1(C)Cc2c(-c3ccccc3)c(-c3ccc(Cl)cc3)c(CC(=O)O)n2C1,AC50,[5],"20.9 µM [falling, single point]"
same,z-score,[3],0.173
COc1cc(Nc2nc3ccccc3nc2NS(=O)(=O)c2ccc(NC(=O)c3ccc(C)c(OC)c3)cc2)cc(OC)c1,z-score,[1],0.572
same,z-score,[2],1.53
same,z-score,[3],0.0848
same,AC50,[4],"20.9 µM [falling, partial curve]"
Cc1nnc(C(C)C)n1C1C[C@H]2CC[C@@H](C1)N2CC[C@H](NC(=O)C1CCC(F)(F)CC1)c1ccccc1 (some centres undefined),z-score,[1],0.419
